According to PMC7775567:

Molecular target: GSK3α/β (rat (endogenous in primary neurons))
Test: co-IP; Neurons treated with astrocyte derived EV-CK1-IL1β (and control EVs) for 18 h; antibody against GSK3, Axin1 or APC coupled to Dynabeads M-450 Epoxy, incubated with cell lysate overnight at 4°C, washed three times with PBS; immunoblot probed for Myc tagged CK1

binding: binds
B1: Myc-tagged CK1 (casein kinase 1; Csnk1a1) (enzyme, UniProt P97633 1-325)
chain: MASSSGSKAEFIVGGKYKLVRKIGSGSFGDIYLAINITNGEEVAVKLESQKARHPQLLYESKLYKILQGGVGIPHIRWYGQGKDYNVLVMDLLGPSLEDLFNFCSRRFTMKTVLMLADQMISRIEYVHTKNFIHRDIKPDNFLMGIGRHCNKLFLIDFGLAKKYRDNRTRQHIPYREDKNLTGTARYASINAHLGIEQSRRDDMESLGYVLMYFNRTSLPWQGLKAATKKQKYEKISEKKMSTPVEVLCKGFPAEFAMYLNYCRGLRFEEAPDYMYLRQLFRILFRTLNHQYDYTFDWTMLKQKAAQQAASSSGQGQQAQTPTGF

No constants are given. Whether binding was seen depends on the method and setting. Binding seen in cells or lysates may run through a third protein. A result given as binding can be weak or reduced; the word gives no strength. Where a sequence is shown, tags or fusion partners need not be part of it.
